These substances were tested on HLA molecules of primary tumor and normal tissue samples (cancer entities) (assay: Identification and label-free LC-MS quantitation of HLA-presented tumor-associated peptides on tissue samples). Details: FIGS. 1A-1J; HLA-A*24 positive normal (N=75) versus tumor samples (N=263), MS signal intensities.
Design: species or system human
With “SEQ ID NO.: 15: peptide found in SLC6A3 (gene looked up) (FMVIAGMPLF; listed as Homo sapiens)” the “over-presentation of the peptide in different cancer tissues” value was “over-presentation”.
In the case of “SEQ ID NO.: 60 (RYSPVKDAW; listed as Homo sapiens)”, the “over-presentation of the peptide in different cancer tissues” value is reported as “over-presentation”.
In the case of “SEQ ID NO.: 74 (NYVLVPTMF; listed as Homo sapiens)”, the “over-presentation of the peptide in different cancer tissues” value is reported as “over-presentation”.
In the case of “SEQ ID NO.: 86 (SYLPTAERL; listed as Homo sapiens)”, the “over-presentation of the peptide in different cancer tissues” value is reported as “over-presentation”.
In the case of “SEQ ID NO.: 202: peptide found in PTPRZ1 (gene looked up) (VYDTMIEKFA; listed as Homo sapiens)”, the “over-presentation of the peptide in different cancer tissues” value is reported as “over-presentation”.
“SEQ ID NO.: 274: peptide found in PTPRZ1 (gene looked up) (EYSLPVLTF; listed as Homo sapiens)” was tested, and the “over-presentation of the peptide in different cancer tissues” value was “over-presentation”.
With “SEQ ID NO.: 362 (NYMDTDNLMF; listed as Homo sapiens)” the “over-presentation of the peptide in different cancer tissues” value was “over-presentation”.
With “SEQ ID NO.: 386: peptide found in AR (gene looked up) (YQSRDYYNF; listed as Homo sapiens)” the “over-presentation of the peptide in different cancer tissues” value was “over-presentation”.
For “SEQ ID NO.: 463 (VGGNVTSNF; listed as Homo sapiens)”, the “over-presentation of the peptide in different cancer tissues” value was “over-presentation”.
In the case of “SEQ ID NO.: 464 (VGGNVTSSF; listed as Homo sapiens)”, the “over-presentation of the peptide in different cancer tissues” value is reported as “over-presentation”.

Same assay, conditions: LC-MS of HLA ligands isolated from tumor tissue samples; cancer entities on which the peptide was presented
In the case of “463 (VGGNVTSNF; listed as Homo sapiens) [compound 463]”, the “Peptide Presentation on cancer entities” value is reported as “AML, BRCA, GBC, GC, HCC, HNSCC, NSCLCsquam, OC”.
With “464 (VGGNVTSSF; listed as Homo sapiens) [compound 464]” the “Peptide Presentation on cancer entities” value was “BRCA, GBC, GC, HNSCC, NSCLCadeno, NSCLCsquam, OC”.
With “SEQ ID No. 3: peptide found in TRPM8 (gene looked up) (KFLTHDVLTELF; listed as Homo sapiens)” the “Peptide Presentation on cancer entities” value was “prostate cancer (PRCA)”.
For “SEQ ID No. 20: peptide found in CYP4Z1 (gene looked up) (ELMAHPFLL; listed as Homo sapiens)”, the “Peptide Presentation on cancer entities” value was “ovarian cancer (OC) and pancreatic cancer (PACA)”.

Same assay, conditions: cancer entities on whose tumor tissue samples the HLA-presented peptide was found (LC-MS); abbreviations in the footnotes of Table 8a
For “311 (IQNAILHLF; listed as Homo sapiens) [compound 311]”, the “Peptide Presentation on cancer entities” value was “SCLC”.
In the case of “316 (IWAERIMF; listed as Homo sapiens) [compound 316]”, the “Peptide Presentation on cancer entities” value is reported as “NSCLCsquam”.
With “317 (DWIWRILFLV; listed as Homo sapiens) [compound 317]” the “Peptide Presentation on cancer entities” value was “GBM”.
In the case of “319 (ATATLHLIF; listed as Homo sapiens) [compound 319]”, the “Peptide Presentation on cancer entities” value is reported as “UEC”.
For “320 (EVYQKIILKF; listed as Homo sapiens) [compound 320]”, the “Peptide Presentation on cancer entities” value was “GBC”.
“321 (VYTVGHNLI; listed as Homo sapiens) [compound 321]” was tested, and the “Peptide Presentation on cancer entities” value was “HCC”.
For “322 (SFISPRYSWLF; listed as Homo sapiens) [compound 322]”, the “Peptide Presentation on cancer entities” value was “AML, CRC, NSCLCadeno, NSCLCsquam, UBC”.
In the case of “323 (NYSPVTGKF; listed as Homo sapiens) [compound 323]”, the “Peptide Presentation on cancer entities” value is reported as “OSCAR”.
In the case of “324 (RYFVSNIYL; listed as Homo sapiens) [compound 324]”, the “Peptide Presentation on cancer entities” value is reported as “GC, NSCLCadeno, NSCLCsquam, UEC”.
For “328 (IYLVGGYSW; listed as Homo sapiens) [compound 328]”, the “Peptide Presentation on cancer entities” value was “CLL”.
“329 (YLGKNWSF; listed as Homo sapiens) [compound 329]” was tested, and the “Peptide Presentation on cancer entities” value was “AML, CCC”.
For “330 (DYIQMIPEL; listed as Homo sapiens) [compound 330]”, the “Peptide Presentation on cancer entities” value was “BRCA, GBC, GC, SCLC”.
In the case of “332 (VYCSLDKSQF; listed as Homo sapiens) [compound 332]”, the “Peptide Presentation on cancer entities” value is reported as “BRCA, CCC, GBC, GC, MEL”.
“336 (VYSDLHAFY; listed as Homo sapiens) [compound 336]” was tested, and the “Peptide Presentation on cancer entities” value was “CCC, GBC, HCC, NSCLCadeno, PACA”.
With “337 (SHSDHEFLF; listed as Homo sapiens) [compound 337]” the “Peptide Presentation on cancer entities” value was “UEC”.
In the case of “338 (VYLTWLPGL; listed as Homo sapiens) [compound 338]”, the “Peptide Presentation on cancer entities” value is reported as “CLL, NHL”.
With “339 (KQVIGIHTF; listed as Homo sapiens) [compound 339]” the “Peptide Presentation on cancer entities” value was “CLL, GBC, GBM, GC, RCC”.
With “340 (FPPTPPLF; listed as Homo sapiens) [compound 340]” the “Peptide Presentation on cancer entities” value was “AML”.
In the case of “345 (RYLEEHTEF; listed as Homo sapiens) [compound 345]”, the “Peptide Presentation on cancer entities” value is reported as “GBC, NSCLCadeno, OC, UEC”.
With “346 (TYIDFVPYI; listed as Homo sapiens) [compound 346]” the “Peptide Presentation on cancer entities” value was “GBC, GC, NSCLCadeno, OC, RCC, UEC”.
In the case of “347 (AWLIVLLFL; listed as Homo sapiens) [compound 347]”, the “Peptide Presentation on cancer entities” value is reported as “NHL, UEC”.
For “348 (RSWENIPVTF; listed as Homo sapiens) [compound 348]”, the “Peptide Presentation on cancer entities” value was “CCC”.
In the case of “349 (IYMTTGVLL; listed as Homo sapiens) [compound 349]”, the “Peptide Presentation on cancer entities” value is reported as “GC, NSCLCadeno”.
“350 (VYKWTEEKF; listed as Homo sapiens) [compound 350]” was tested, and the “Peptide Presentation on cancer entities” value was “BRCA, NSCLCother, OSCAR”.
In the case of “351 (GYFGTASLF; listed as Homo sapiens) [compound 351]”, the “Peptide Presentation on cancer entities” value is reported as “NSCLCadeno, NSCLCother”.
“354 (QYIPTFHVY; listed as Homo sapiens) [compound 354]” was tested, and the “Peptide Presentation on cancer entities” value was “BRCA, GBM, HCC, HNSCC, NSCLCsquam, OSCAR”.
For “355 (VYNNNSSRF; listed as Homo sapiens) [compound 355]”, the “Peptide Presentation on cancer entities” value was “CCC, CRC, GBC, GC, HCC, HNSCC, MEL, NHL, NSCLCadeno, NSCLCother, NSCLCsquam, OC, OSCAR, PACA, PRCA, RCC, SCLC, UEC”.
With “356 (YSLEHLTQF; listed as Homo sapiens) [compound 356]” the “Peptide Presentation on cancer entities” value was “OC, UEC”.
With “357 (RALLPSPLF; listed as Homo sapiens) [compound 357]” the “Peptide Presentation on cancer entities” value was “MEL, NHL”.
“358 (IYANVTEMLL; listed as Homo sapiens) [compound 358]” was tested, and the “Peptide Presentation on cancer entities” value was “OSCAR”.
For “359 (TQLPAPLRI; listed as Homo sapiens) [compound 359]”, the “Peptide Presentation on cancer entities” value was “UEC”.
In the case of “360 (LYITKVTTI; listed as Homo sapiens) [compound 360]”, the “Peptide Presentation on cancer entities” value is reported as “NSCLCadeno”.
In the case of “361 (KQPANFIVL; listed as Homo sapiens) [compound 361]”, the “Peptide Presentation on cancer entities” value is reported as “GBC”.
With “362 (NYMDTDNLMF; listed as Homo sapiens) [compound 362]” the “Peptide Presentation on cancer entities” value was “CCC, GBC, GC, HCC, OC, OSCAR, SCLC”.
In the case of “363 (QYGFNYNKF; listed as Homo sapiens) [compound 363]”, the “Peptide Presentation on cancer entities” value is reported as “GC, NSCLCsquam”.
For “364 (KQSQVVFVL; listed as Homo sapiens) [compound 364]”, the “Peptide Presentation on cancer entities” value was “NSCLCsquam, OC, PRCA”.
For “365 (KDLMKAYLF; listed as Homo sapiens) [compound 365]”, the “Peptide Presentation on cancer entities” value was “GC, SCLC”.
With “367 (HWSHITHLF; listed as Homo sapiens) [compound 367]” the “Peptide Presentation on cancer entities” value was “CCC, CRC, GBM, GC, MEL”.
“368 (AYFVAMHLF; listed as Homo sapiens) [compound 368]” was tested, and the “Peptide Presentation on cancer entities” value was “GBC, GBM, HNSCC, MEL, NHL, NSCLCadeno, NSCLCother, NSCLCsquam, OC, SCLC, UEC”.
“369 (NFYLFPTTF; listed as Homo sapiens) [compound 369]” was tested, and the “Peptide Presentation on cancer entities” value was “GC, NSCLCsquam”.
In the case of “370 (TQMDVKLVF; listed as Homo sapiens) [compound 370]”, the “Peptide Presentation on cancer entities” value is reported as “GBC, GC, HCC, NHL, NSCLCadeno, NSCLCsquam, OSCAR, UBC, UEC”.
With “373 (IWDALERTF; listed as Homo sapiens) [compound 373]” the “Peptide Presentation on cancer entities” value was “CLL, CRC, GBC, GBM, GC, HCC, HNSCC, MEL, NHL, NSCLCadeno, NSCLCsquam, OC, OSCAR, PRCA”.
For “375 (YYAADQWVF; listed as Homo sapiens) [compound 375]”, the “Peptide Presentation on cancer entities” value was “AML, GBC, GC, HCC, NHL, NSCLCadeno, NSCLCother, NSCLCsquam, OSCAR, PACA”.
For “376 (KYVGEVFNI; listed as Homo sapiens) [compound 376]”, the “Peptide Presentation on cancer entities” value was “AML, CLL, HCC, NHL, NSCLCadeno, NSCLCsquam, RCC”.
With “377 (SLWREVVTF; listed as Homo sapiens) [compound 377]” the “Peptide Presentation on cancer entities” value was “OC, RCC”.
In the case of “378 (VYAVISNIL; listed as Homo sapiens) [compound 378]”, the “Peptide Presentation on cancer entities” value is reported as “GBM, NHL, NSCLCadeno, SCLC”.
In the case of “379 (KLPTEWNVL; listed as Homo sapiens) [compound 379]”, the “Peptide Presentation on cancer entities” value is reported as “CCC, CLL, CRC, GC, HCC, NHL, NSCLCadeno, NSCLCother, OSCAR, RCC, UEC”.
With “380 (FYIRRLPMF; listed as Homo sapiens) [compound 380]” the “Peptide Presentation on cancer entities” value was “NHL, NSCLCadeno, NSCLCsquam, OC, OSCAR, RCC”.
For “381 (IYTDITYSF; listed as Homo sapiens) [compound 381]”, the “Peptide Presentation on cancer entities” value was “AML, CCC, GBC, HCC, NHL, NSCLCadeno, NSCLCsquam, OC, OSCAR, RCC”.
“382 (SYPKELMKF; listed as Homo sapiens) [compound 382]” was tested, and the “Peptide Presentation on cancer entities” value was “GBC, GC, HNSCC, NSCLCadeno, OC, UEC”.
For “383 (PYFSPSASF; listed as Homo sapiens) [compound 383]”, the “Peptide Presentation on cancer entities” value was “NSCLCadeno, NSCLCother, UBC”.
With “385 (GYFGNPQKF; listed as Homo sapiens) [compound 385]” the “Peptide Presentation on cancer entities” value was “BRCA, CCC, CRC, GBC, GC, HCC, HNSCC, MEL, NSCLCadeno, NSCLCother, NSCLCsquam, OC, OSCAR, PACA, PRCA, RCC, SCLC, UBC, UEC”.

From patent US12060400B2, “Peptides for use in immunotherapy against cancers” (Immatics Biotechnologies GmbH, priority 2018, dated 2024)
